Our source for the binding values is PMC12320246.

By UniProt entry, the sequences of proteins in these tests, tags left out.
UniProt O00425: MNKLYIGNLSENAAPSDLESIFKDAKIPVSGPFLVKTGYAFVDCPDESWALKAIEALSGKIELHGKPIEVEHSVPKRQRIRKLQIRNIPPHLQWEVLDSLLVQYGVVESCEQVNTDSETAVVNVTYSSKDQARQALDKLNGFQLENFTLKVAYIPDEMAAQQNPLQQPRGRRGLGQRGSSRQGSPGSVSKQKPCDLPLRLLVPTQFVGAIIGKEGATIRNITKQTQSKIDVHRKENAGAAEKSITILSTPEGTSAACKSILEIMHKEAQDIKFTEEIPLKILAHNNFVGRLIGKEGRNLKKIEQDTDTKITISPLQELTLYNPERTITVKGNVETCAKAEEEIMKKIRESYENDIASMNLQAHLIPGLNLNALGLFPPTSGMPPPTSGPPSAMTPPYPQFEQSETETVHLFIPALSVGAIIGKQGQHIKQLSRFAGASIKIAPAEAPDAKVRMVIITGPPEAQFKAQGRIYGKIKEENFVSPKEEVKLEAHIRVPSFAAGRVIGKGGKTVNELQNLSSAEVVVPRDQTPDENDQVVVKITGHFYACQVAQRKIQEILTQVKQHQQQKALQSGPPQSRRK

No constants are given. Whether binding was seen depends on the method and setting. Binding seen in cells or lysates may run through a third protein. Here binding means that the protein was enriched with, or labelled near, the bait; the list need not be complete.

The assay addresses T1, Olfactomedin-like 1 (OLFML1), endogenously expressed (human (endogenous in HCT8 and CaCo2)) (UniProt Q6UWY5).
T1 sequence: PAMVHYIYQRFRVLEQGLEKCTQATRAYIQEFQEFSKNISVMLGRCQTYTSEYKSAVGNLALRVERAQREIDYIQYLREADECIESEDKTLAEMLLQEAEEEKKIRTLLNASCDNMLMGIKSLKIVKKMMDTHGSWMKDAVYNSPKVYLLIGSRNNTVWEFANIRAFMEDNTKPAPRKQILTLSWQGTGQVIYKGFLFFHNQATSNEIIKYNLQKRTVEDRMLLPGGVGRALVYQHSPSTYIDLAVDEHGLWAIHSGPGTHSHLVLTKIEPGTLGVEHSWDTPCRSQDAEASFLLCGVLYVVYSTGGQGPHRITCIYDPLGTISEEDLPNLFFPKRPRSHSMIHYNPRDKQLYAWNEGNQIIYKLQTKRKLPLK
The assay is described as follows: affinity purification with mass spectrometry; HCT8 and CaCo2 lysates immunoprecipitated with anti-OLFML1 antibody or rabbit IgG; silver staining; differential band at about 70 kDa analysed by LC-MS.

Consider “Insulin-like growth factor 2 mRNA-binding protein 3 (IGF2BP3), endogenously expressed (from UniProt O00425 1-579)”, for which the binding entry is listed as “binds”.
